The text below walks through data of patent publication US20220378827A1 (EMORY UNIVERSITY, published 2022).

Amino acid sequences for entries named in this document (tags omitted). Residues count along the entry.
UniProt P06127, residues 25-372: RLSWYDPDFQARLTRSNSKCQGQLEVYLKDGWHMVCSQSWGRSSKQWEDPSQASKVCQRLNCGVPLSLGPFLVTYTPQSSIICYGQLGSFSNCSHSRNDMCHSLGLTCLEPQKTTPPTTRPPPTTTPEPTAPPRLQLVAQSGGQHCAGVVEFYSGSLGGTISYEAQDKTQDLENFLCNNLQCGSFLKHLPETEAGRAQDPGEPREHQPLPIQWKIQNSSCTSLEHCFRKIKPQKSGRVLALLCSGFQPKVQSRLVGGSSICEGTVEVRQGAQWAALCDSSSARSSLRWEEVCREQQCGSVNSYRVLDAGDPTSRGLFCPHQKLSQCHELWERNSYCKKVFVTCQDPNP

No constants are given. Whether binding was seen depends on the method and setting. Some results given as binding are weak or reduced against the parent protein; the word gives no strength.

For this assay, the target named is CD5-Fc fusion protein (UniProt P06127). As to the kind of experiment: flow cytometry; CD5-NSCAR-transduced Jurkat T cells stained with CD5-Fc and secondary anti-IgG Fc antibody. For orientation: A flow cytometer gives signals particle by particle.

B1: CD5-NSCAR (CD5 scFv non-signaling chimeric antigen receptor) (other)
chain: GAPEIQLVQSGGGLVKPGGSVRISCAASGYTFTNYGMNWVRQAPGKGLEWMGWINTHTGEPTYADSFKGRFTFSLDDSKNTAYLQINSLRAEDTAVYFCTRRGYDWYFDVWGQGTTVTVSSGGGGSGGGGSGGGGSDIQMTQSPSSLSASVGDRVTITCRASQDINSYLSWFQQKPGKAPKTLIYRANRLESGVPSRFSGSGSGTDYTLTISSLQYEDFGIYYCQQYDESPWTFGGGTKLEIKASEQKLISEEDLDNEKSNGTIIHVKGKHLCPSPLFPGPSKPFWVLVVVGGVLACYSLLVTVAFIIFWVRSEWPGKVR
Consider B1, for which the binding entry was “binds”.
